Source: PMC3556083
Results are given in words; binding and its absence hold for the method and conditions named. Binding seen in cells or lysates may run through a third protein. Here binding means that the protein was enriched with, or labelled near, the bait; the list need not be complete.

B1: PCCA (protein, UniProt P14882 62-737)
chain: SVEYEPKEKTFDKILIANRGEIACRVIKTCRKMGIRTVAIHSDVDASSVHVKMADEAVCVGPAPTSKSYLNMDAIMEAIKKTGAQAVHPGYGFLSENKEFAKCLAAEDVTFIGPDTHAIQAMGDKIESKLLAKRAKVNTIPGFDGVLKDADEAVRIAREIGYPVMIKASAGGGGKGMRIPWDDEETRDGFRFSSQEAASSFGDDRLLIEKFIDNPRHIEIQVLGDKHGNALWLNERECSIQRRNQKVVEEAPSIFLDPETRRAMGEQAVAWPKAVKYSSAGTVEFLVDSQKNFYFLEMNTRLQVEHPVTECITGLDLVQEMILVAKGYPLRHKQEDIPISGWAVECRVYAEDPYKSFGLPSIGRLSQYQEPIHLPGVRVDSGIQPGSDISIYHDPMISKLVTYGSDRAEALKRMEDALDSYVIRGVTHNIPLLREVIINTRFVKGDISTKFLSDVYPDGFKGHMLTPSERDQLLAIASSLFVASQLRAQRFQEHSRVPVIRPDVAKWELSVKLHDEDHTVVASNNGPTFNVEVDGSKLNVTSTWNLASPLLSVNVDGTQRTVQCLSPDAGGNMSIQFLGTVYKVHILTKLAAELNKFMLEKVPKDTSSVLRSPKPGVVVAVSVKPGDMVAEGQEICVIEAMKMQNSMTAGKMGKVKLVHCKAGDTVGEGDLLVELE
B2: PLA2G16 (protein, UniProt P53817 1-160)
chain: MPIPEPKPGDLIEIFRPMYSHWAIYVGDGYVIHLAPPSEIPGAGAASIMSALTDKAIVKKELLRDVAGKDKYQVNNKHDKEYTPLPLNKIIQRAEELVGQEVLYRLTSENCEHFVNELRYGVPRSDQVRDAVKVATVTGVGLAALGLIGVMLSRNKKQKQ
B3: COQ3 (protein, UniProt Q63159 87-345)
chain: STSQTVDSKEVKTFQALAHSWWDEQGKFAPLHSMNDLRVPFIRDNLLKTSTNHDPGKPLSGMKILDVGCGGGLLTEPLGRLGASVVGIDPVAENIKIAQHHKSFDPVLDKRIQYRVCSLEETLNENAECFDAVVASEVVEHVNNLEMFIQCCYQVLKPGGSLFITTVNKTQLSYVLGIVFSEQIAGIVPKGTHTWEKFVSPEKLESILEPNGLSVETVAGMVYNPFSGYWHWTENTSLNYAAHAVRARAQEHLEPAESA
B4: PITPNB (protein, UniProt P53812 1-271)
chain: MVLIKEFRVVLPCSVQEYQVGQLYSVAEASKNETGGGEGIEVLKNEPYENDGEKGQYTHKIYHLKSKVPAFVRMIAPEGSLVFHEKAWNAYPYCRTIVTNEYMKDDFFIKIETWHKPDLGTLENVHGLDPNTWKTVEIVHIDIADRSQVEPADYKADEDPALFQSVKTKRGPLGPNWKKELANTPDCPKMCAYKLVTIKFKWWGLQSKVENFIQKQEKRIFTNLHRQLFCWIDKWIDLTMEDIRRMEDETQKELETMRKKGSVRGTSAADA
B5: IDH3A (protein, UniProt Q99NA5 28-366)
chain: AGGVQTVTLIPGDGIGPEISASVMKIFDAAKAPIQWEERNVTAIQGPGGKWMIPPEAKESMDKNKMGLKGPLKTPIAAGHPSMNLLLRKTFDLYANVRPCVSIEGYKTPYTDVNIVTIRENTEGEYSGIEHVIVDGVVQSIKLITEGASKRIAEFAFEYARNNHRSNVTAVHKANIMRMSDGLFLQKCREVAENCKDIKFNEMYLDTVCLNMVQDPSQFDVLVMPNLYGDILSDLCAGLIGGLGVTQSGNIGANGVAIFESVHGTAPDIAGKDMANPTALLLSAVMMLRHMGLFDHAAKIEAACFATIKDGKSLTKDLGGNSKCSDFTEEICRRVKDLD
B6: SDHB (protein, UniProt P21913 31-282)
chain: AQTAAAAAPRIKTFAIYRWDPDKAGDKPRMQTYKVDLNKCGPMVLDALIKIKNEIDSTLTFRRSCREGICGSCAMNINGGNTLACTRRIDTDLGKVSKIYPLPHMYVIKDLVPDLSNFYAQYKSIEPYLKKKDESQEGKQQYLQSIEDREKLDGLYECILCACCSTSCPSYWWNGDKYLGPAVLMQAYRWMIDSRDEFTEERLAKLQDPFSLYRCHTIMNCTQTCPKGLNPGKAIAEIKKMMATYKEKRALA
B7: CPT2 (protein, UniProt P18886 26-658)
chain: SAVSGPDDYLQHSIVPTMHYQDSLPRLPIPKLEDTMKRYLNAQKPLLDDSQFRRTEALCKNFETGVGKELHAHLLAQDKQNKHTSYISGPWFDMYLTARDSIVLNFNPFMAFNPDPKSEYNDQLTRATNLTVSAVRFLKTLQAGLLEPEVFHLNPSKSDTDAFKRLIRFVPPSLSWYGAYLVNAYPLDMSQYFRLFNSTRIPRPNRDELFTDTKARHLLVLRKGHFYVFDVLDQDGNIVNPLEIQAHLKYILSDSSPVPEFPVAYLTSENRDVWAELRQKLIFDGNEETLKKVDSAVFCLCLDDFPMKDLIHLSHTMLHGDGTNRWFDKSFNLIVAEDGTAAVHFEHSWGDGVAVLRFFNEVFRDSTQTPAITPQSQPAATNSSASVETLSFNLSGALKAGITAAKEKFDTTVKTLSIDSIQFQRGGKEFLKKKQLSPDAVAQLAFQMAFLRQYGQTVATYESCSTAAFKHGRTETIRPASIFTKRCSEAFVRDPSKHSVGELQHMMAECSKYHGQLTKEAAMGQGFDRHLYALRYLATARGLNLPELYLDPAYQQMNHNILSTSTLNSPAVSLGGFAPVVPDGFGIAYAVHDDWIGCNVSSYSGRNAREFLHCVQKCLEDIFDALEGKAIKT
B8: HK2 (protein, UniProt P27881 1-917)
chain: MIASHMIACLFTELNQNQVQKVDQFLYHMRLSDETLLEISRRFRKEMEKGLGATTHPTAAVKMLPTFVRSTPDGTEHGEFLALDLGGTNFRVLRVRVTDNGLQRVEMENQIYAIPEDIMRGSGTQLFDHIAECLANFMDKLQIKEKKLPLGFTFSFPCHQTKLDESFLVSWTKGFKSSGVEGRDVVDLIRKAIQRRGDFDIDIVAVVNDTVGTMMTCGYDDQNCEIGLIVGTGSNACYMEEMRHIDMVEGDEGRMCINMEWGAFGDDGTLNDIRTEFDREIDMGSLNPGKQLFEKMISGMYMGELVRLILVKMAKAELLFQGKLSPELLTTGSFETKDVSDIEEDKDGIEKAYQILMRLGLNPLQEDCVATHRICQIVSTRSASLCAATLAAVLWRIKENKGEERLRSTIGVDGSVYKKHPHFAKRLHKAVRRLVPDCDVRFLRSEDGSGKGAAMVTAVAYRLADQHRARQKTLESLKLSHEQLLEVKRRMKVEMEQGLSKETHAVAPVKMLPTYVCATPDGTEKGDFLALDLGGTNFRVLLVRVRNGKRRGVEMHNKIYSIPQEVMHGTGEELFDHIVQCIADFLEYMGMKGVSLPLGFTFSFPCQQNSLDQSILLKWTKGFKASGCEGEDVVTLLKEAIHRREEFDLDVVAVVNDTVGTMMTCGYEDPHCEVGLIVGTGSNACYMEEMRNVELVDGEEGRMCVNMEWGAFGDNGCLDDLRTVFDVAVDELSLNPGKQRFEKMISGMYLGEIVRNILIDFTKRGLLFRGRISERLKTRGIFETKFLSQIESDCLALLQVRAILRHLGLESTCDDSIIVKEVCTVVARRAAQLCGAGMAAVVDKIRENRGLDNLKVTVGVDGTLYKLHPHFAKVMHETVRDLAPKCDVSFLESEDGSGKGAALITAVACRIREAGQR
B9: FABP4 (protein, UniProt P70623 1-132)
chain: MCDAFVGTWKLVSSENFDDYMKEVGVGFATRKVAGMAKPNLIISVEGDLVVIRSESTFKNTEISFKLGVEFDEITPDDRKVKSIITLDGGVLVHVQKWDGKSTTIKKRRDGDKLVVECVMKGVTSTRVYERA
B10: IDH3G (protein, UniProt P41565 40-393)
chain: SSQQTIPPSAKYGGRHTVTMIPGDGIGPELMLHVKSVFRHACVPVDFEEVHVSSNADEEDIRNAIMAIRRNRVALKGNIETNHDLPPSHKSRNNILRTSLDLYANVIHCKSLPGVVTRHKDIDILIVRENTEGEYSSLEHESVAGVVESLKIITKAKSLRIAEYAFKLAQESGRKKVTAVHKANIMKLGDGLFLQCCREVAARYPQITFDSMIVDNTTMQLVSRPQQFDVMVMPNLYGNIVNNVCAGLVGGPGLVAGANYGHVYAVFETATRNTGKSIANKNIANPTATLLASCMMLDHLKLHSYATSIRKAVLASMDNENMHTPDIGGQGTTSQAIQDIIRHIRIINGRAVEA
B11: ACBD3 (protein, UniProt Q7TNY6 1-526)
chain: MAAQLNVEQLEVSLDGLTLSPDSEERPGAEGAPLQTPPSSPPRDGLGSGTAGQQREPGEAAAEGAAEEARRMEQHWGFGLEELYGLALRFYKIKDGKAFHPTYEEKLKFVALHKQVLLGPYNPDTSPEVGFFDVLGNDRRREWAALGNMSKEDAMVEFVKLLNKCCPLLSAYVASHRIEKEEEEKRRKAEEERRQREEEERERLQKEEEKRKREEEDRLRREEEERRRIEEERLRLEQQKQQIMAALNSQTAVQFQQYAAQQYPGNYEQQQILIRQLQEQHYQQYMQQLYQVQLAQQQAALQKQQEVVVAGASLPASTKVNTAGASDPLPVNGQAKTHTENPEKVLEPEAAEEALENGPKDSLPVIAAPSMWTRPQIKDFKEKIRQDADSVITVRRGEVVTVRVPTHEEGSYLFWEFATDSYDIGFGVYFEWTDSPNAAVSVHVSESSDDEEEEEEENVTCEEKAKKNVNKPLLDEIVPVYRRDCHEEVYAGSHQYPGRGVYLLKFDNSYSLWRSKSVYYRVYYTR
B12: RAB5A (protein, UniProt M0RC99 1-215)
chain: MANRGATRPNGPNTGNKICQFKLVLLGESAVGKSSLVLRFVKGQFHEFQESTIGAAFLTQTVCLDDTTVKFEIWDTAGQERYHSLAPMYYRGAQAAIVVYDITNEESFSRAKNWVKELQRQASPNIVIALSGNKADLANKRAVDFQEAQSYADDNSLLFMETSAKTPMNVNEIFMAIAKKLPKNEPQNPGANSARGRGVDLTEPAQPARSQCCSN
B13: PPM1A (protein, UniProt P20650 1-382)
chain: MGAFLDKPKMEKHNAQGQGNGLRYGLSSMQGWRVEMEDAHTAVIGLPSGLETWSFFAVYDGHAGSQVAKYCCEHLLDHITNNQDFKGSAGAPSVENVKNGIRTGFLEIDEHMRVMSEKKHGADRSGSTAVGVLISPQHTYFINCGDSRGLLCRNRKVHFFTQDHKPSNPLEKERIQNAGGSVMIQRVNGSLAVSRALGDFDYKCVHGKGPTEQLVSPEPEVHDIERSEEDDQFIILACDGIWDVMGNEELCDFVRSRLEVTDDLEKVCNEVVDTCLYKGSRDNMSVILICFPNAPKVSAEAVKKEAELDKYLENRVEEIIKKQGEGVPDLVHVMRTLASENIPSLPPGGELASKRNVIEAVYNRLNPYKNDDTDSASTDDMW

These binders were tested against β2-adrenergic receptor (UniProt P07550) (assay: affinity purification with mass spectrometry; purified Flag-β2AR in rHDL immobilised on M1 anti-Flag resin, occupied by 50 µM BI-167107 (full agonist) or 50 µM carazolol (inverse agonist); adult rat heart cytosol (10 mg/ml, 4 mM CaCl2) overnight at 4°C; eluted with FLAG peptide and EDTA; gel slices, LC-MS; proteins of the M1 resin, empty rHDL and Ni-NTA controls subtracted; hits of either or both samples; only the target purified).

binding, binds:
B1
B2
B3
B4
B5
B6
B7
B8
B9
B10
B11
B12
B13
